Reference: the supplement of paper PMC10849652
The list shows a part of the results.

Amino acid sequences for entries named in this document (tags omitted). A change or cut given only in a name is not applied to a line headed by its entry.
UniProt Q9Y5S1: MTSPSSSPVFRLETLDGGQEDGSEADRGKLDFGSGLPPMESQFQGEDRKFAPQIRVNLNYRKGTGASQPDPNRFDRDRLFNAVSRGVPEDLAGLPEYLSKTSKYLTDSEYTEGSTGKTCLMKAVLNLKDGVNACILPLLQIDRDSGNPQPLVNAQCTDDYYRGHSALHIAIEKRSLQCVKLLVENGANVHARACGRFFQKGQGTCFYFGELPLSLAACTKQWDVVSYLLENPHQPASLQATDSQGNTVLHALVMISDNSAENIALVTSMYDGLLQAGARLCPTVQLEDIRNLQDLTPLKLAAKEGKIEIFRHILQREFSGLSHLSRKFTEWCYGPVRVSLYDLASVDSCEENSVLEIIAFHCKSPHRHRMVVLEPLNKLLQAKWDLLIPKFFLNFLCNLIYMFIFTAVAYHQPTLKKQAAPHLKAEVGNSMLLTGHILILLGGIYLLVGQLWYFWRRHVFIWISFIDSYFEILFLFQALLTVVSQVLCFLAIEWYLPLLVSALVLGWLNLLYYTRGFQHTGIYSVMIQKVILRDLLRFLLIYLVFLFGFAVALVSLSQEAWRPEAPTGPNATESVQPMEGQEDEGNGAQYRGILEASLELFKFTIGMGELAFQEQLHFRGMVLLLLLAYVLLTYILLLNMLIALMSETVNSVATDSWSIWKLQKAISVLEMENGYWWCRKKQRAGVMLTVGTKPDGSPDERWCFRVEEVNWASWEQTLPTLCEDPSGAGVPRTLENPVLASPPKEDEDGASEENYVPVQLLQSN
UniProt Q96FX7: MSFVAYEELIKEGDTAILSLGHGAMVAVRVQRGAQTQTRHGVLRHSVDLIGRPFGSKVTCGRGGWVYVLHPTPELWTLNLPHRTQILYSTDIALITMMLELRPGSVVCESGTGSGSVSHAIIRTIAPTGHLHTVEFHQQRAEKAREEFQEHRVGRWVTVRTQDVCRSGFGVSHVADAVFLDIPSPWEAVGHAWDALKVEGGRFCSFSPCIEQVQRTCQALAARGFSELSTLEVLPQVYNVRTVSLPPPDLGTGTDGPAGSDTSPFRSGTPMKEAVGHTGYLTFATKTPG
UniProt Q9Y296, whole entry, looked up: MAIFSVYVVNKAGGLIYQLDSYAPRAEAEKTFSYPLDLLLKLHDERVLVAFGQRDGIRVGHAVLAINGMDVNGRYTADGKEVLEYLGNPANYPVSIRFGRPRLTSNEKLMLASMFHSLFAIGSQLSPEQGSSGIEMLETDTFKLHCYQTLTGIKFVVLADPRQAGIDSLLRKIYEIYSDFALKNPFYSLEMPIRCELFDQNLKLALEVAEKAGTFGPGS
UniProt P36406: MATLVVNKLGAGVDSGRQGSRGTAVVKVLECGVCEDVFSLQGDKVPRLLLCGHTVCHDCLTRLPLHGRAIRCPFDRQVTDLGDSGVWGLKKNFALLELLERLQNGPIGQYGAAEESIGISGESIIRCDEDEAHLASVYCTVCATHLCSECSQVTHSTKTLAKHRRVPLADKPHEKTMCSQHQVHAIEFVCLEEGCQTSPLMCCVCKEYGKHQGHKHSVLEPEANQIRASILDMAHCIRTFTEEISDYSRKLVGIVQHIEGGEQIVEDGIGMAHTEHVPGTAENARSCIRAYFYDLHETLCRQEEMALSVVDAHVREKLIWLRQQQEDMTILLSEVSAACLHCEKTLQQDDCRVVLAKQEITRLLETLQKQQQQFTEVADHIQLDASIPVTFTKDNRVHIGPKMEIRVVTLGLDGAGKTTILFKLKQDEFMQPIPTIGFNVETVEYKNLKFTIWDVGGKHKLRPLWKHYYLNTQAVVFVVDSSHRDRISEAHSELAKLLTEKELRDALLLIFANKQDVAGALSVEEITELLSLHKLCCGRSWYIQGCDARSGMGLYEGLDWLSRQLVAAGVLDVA
UniProt O75157: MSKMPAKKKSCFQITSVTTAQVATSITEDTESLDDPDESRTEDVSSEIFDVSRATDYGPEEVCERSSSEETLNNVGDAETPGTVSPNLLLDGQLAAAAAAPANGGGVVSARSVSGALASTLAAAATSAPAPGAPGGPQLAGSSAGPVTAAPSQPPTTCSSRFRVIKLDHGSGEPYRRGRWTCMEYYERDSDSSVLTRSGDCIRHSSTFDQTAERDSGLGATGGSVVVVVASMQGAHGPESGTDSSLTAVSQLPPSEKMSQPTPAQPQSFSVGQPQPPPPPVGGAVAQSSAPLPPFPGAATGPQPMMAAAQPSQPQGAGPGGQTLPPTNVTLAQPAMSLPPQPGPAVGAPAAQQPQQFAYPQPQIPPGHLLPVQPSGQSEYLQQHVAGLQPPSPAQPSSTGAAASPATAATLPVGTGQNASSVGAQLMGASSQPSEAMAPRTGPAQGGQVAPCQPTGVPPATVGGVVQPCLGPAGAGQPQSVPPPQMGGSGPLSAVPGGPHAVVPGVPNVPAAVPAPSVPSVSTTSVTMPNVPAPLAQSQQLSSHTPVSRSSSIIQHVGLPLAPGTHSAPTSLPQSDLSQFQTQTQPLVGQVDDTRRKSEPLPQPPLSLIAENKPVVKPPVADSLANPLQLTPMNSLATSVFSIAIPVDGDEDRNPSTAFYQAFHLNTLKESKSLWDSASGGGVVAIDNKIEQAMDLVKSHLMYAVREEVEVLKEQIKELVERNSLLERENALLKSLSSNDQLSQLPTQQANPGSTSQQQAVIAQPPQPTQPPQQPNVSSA
UniProt Q9Y4A5, whole entry, looked up: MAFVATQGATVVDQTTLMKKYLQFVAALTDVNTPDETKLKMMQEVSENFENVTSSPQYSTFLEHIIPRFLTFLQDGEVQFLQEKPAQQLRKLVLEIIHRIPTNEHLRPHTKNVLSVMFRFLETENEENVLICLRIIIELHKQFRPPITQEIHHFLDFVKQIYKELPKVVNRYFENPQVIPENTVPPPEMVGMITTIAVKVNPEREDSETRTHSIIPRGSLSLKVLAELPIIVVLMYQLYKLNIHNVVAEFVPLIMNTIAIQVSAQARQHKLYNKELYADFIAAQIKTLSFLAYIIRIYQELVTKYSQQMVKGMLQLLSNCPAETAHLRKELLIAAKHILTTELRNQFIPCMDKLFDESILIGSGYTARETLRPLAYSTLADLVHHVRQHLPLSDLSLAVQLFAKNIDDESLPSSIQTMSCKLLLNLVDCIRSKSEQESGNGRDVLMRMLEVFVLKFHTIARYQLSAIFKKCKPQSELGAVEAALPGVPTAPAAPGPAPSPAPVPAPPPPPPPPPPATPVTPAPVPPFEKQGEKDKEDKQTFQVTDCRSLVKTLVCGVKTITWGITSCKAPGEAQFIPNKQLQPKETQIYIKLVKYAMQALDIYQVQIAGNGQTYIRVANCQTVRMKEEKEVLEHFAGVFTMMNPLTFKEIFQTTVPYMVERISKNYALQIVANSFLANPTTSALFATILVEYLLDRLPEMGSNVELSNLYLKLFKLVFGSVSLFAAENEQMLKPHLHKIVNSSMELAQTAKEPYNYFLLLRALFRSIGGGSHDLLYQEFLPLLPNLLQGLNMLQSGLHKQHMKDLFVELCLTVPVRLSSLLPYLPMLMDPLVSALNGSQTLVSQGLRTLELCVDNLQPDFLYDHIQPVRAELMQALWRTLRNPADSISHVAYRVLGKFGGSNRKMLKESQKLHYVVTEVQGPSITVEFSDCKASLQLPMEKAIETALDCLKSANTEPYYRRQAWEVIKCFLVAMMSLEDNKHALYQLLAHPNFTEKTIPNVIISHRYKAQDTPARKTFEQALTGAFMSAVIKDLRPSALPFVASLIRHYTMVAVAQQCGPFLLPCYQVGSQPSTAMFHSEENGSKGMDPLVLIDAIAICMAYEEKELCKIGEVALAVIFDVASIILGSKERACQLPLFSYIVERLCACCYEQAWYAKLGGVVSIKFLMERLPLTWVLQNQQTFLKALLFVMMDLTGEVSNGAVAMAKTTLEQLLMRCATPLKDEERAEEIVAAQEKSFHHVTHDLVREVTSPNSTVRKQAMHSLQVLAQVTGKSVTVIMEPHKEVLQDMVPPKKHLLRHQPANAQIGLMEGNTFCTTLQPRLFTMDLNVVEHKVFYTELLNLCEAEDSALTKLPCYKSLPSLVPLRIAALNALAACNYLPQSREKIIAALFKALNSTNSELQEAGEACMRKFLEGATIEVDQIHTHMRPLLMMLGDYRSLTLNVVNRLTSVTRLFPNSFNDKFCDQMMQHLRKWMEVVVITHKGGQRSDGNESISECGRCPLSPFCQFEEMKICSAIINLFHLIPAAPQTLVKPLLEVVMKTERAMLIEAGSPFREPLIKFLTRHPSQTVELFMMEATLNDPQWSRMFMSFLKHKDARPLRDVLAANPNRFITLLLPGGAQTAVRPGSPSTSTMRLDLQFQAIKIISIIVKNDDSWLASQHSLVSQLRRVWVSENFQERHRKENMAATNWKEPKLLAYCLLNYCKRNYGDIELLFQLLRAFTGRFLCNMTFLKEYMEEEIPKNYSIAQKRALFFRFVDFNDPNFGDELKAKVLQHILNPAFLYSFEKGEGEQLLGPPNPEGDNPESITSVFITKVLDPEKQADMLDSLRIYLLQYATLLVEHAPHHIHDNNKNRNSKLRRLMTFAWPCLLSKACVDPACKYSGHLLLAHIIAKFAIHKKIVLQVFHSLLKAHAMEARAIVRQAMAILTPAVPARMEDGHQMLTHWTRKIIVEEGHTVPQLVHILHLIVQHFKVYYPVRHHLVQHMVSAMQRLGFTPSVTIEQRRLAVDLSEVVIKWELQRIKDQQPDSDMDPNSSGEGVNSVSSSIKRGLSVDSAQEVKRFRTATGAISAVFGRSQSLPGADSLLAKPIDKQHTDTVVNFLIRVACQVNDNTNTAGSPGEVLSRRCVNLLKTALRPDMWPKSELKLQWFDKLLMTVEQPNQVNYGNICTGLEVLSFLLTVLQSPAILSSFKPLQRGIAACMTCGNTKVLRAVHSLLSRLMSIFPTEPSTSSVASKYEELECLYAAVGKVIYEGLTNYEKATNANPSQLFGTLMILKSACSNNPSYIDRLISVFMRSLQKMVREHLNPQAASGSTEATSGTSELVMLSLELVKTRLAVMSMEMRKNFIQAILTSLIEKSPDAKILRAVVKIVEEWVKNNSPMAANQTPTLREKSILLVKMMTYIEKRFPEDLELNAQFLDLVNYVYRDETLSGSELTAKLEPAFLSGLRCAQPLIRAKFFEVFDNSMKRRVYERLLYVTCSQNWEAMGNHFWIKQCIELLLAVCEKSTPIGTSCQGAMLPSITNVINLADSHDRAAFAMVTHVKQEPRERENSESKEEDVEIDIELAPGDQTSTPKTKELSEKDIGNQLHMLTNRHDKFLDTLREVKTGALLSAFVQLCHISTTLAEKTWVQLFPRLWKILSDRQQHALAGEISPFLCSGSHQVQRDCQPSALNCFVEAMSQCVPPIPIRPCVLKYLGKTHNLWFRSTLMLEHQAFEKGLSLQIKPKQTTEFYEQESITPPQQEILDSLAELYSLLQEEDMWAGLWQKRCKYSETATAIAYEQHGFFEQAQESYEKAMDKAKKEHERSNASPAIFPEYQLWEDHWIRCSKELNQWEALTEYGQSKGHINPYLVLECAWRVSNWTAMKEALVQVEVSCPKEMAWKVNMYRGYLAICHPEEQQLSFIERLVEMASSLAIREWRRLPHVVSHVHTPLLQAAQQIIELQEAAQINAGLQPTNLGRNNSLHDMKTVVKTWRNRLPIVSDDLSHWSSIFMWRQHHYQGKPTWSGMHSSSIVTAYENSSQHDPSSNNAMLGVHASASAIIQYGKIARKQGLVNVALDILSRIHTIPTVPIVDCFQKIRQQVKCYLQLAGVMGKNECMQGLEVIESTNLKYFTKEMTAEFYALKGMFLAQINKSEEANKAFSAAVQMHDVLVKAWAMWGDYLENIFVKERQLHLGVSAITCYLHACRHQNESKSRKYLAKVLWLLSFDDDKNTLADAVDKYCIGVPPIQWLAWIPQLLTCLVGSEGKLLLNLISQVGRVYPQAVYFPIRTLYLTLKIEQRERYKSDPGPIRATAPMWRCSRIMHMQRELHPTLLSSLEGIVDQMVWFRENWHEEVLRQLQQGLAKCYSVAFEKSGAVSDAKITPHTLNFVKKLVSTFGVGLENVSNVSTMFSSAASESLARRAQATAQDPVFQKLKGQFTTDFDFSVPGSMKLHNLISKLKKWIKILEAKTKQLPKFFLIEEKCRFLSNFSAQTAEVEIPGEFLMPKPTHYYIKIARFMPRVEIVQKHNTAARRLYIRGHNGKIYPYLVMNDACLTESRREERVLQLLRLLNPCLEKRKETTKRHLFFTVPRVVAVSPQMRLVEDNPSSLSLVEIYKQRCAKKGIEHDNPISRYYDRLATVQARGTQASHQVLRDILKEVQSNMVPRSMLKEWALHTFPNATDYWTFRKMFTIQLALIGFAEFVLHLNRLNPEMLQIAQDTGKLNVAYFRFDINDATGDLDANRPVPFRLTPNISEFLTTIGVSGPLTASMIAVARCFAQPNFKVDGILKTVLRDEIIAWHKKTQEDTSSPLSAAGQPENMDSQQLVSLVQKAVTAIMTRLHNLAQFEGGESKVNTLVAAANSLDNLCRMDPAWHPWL

Tests used:
Test in all cases: log2 fold change, soluble protein after heating vs DMSO (PISA); higher = thermal stabilisation; K562 lysate, 10 uM; active = over 0.2 and 3.5 SD of the protein, either way, in both replicates (recomputed)
vemurafenib = compound: CCCS(=O)(=O)Nc1ccc(F)c(C(=O)c2c[nH]c3ncc(-c4ccc(Cl)cc4)cc23)c1F [vemurafenib]
Method in brief: (§1)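 Values give the log-two fold change in thermal stability against solvent controls, from duplicates. Crude K562 extract at 1 mg/mL protein, made by dounce homogenisation in PBS pH 7.4 with 1 mM MgCl2, was treated with 10 μM compound for 30 min. After 3 min heating across 48°C-58°C, aliquots were pooled, adjusted to 0.5% NP-40 at 4°C and centrifuged at 21,000xg for 90 min. The supernatant was measured by TMTpro 16plex LC-MS/MS with channel sums equalised.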

[1] = compound: CCCS(=O)(=O)Nc1ccc(F)c(C(=O)c2c[nH]c3ncc(Cl)cc23)c1F
Method in brief: as §1

barasertib = compound: CCN(CCCOc1ccc2c(Nc3cc(CC(=O)Nc4cccc(F)c4)[nH]n3)ncnc2c1)CCOP(=O)(O)O [barasertib]
Method in brief: as §1

[2] = compound: CC[C@@H]1C(=O)N(C)c2cnc(Nc3ccc(C(=O)NC4CCN(C)CC4)cc3OC)nc2N1C1CCCC1
Method in brief: as §1

volasertib = compound: CC[C@@H]1C(=O)N(C)c2cnc(Nc3ccc(C(=O)N[C@H]4CC[C@H](N5CCN(CC6CC6)CC5)CC4)cc3OC)nc2N1C(C)C [volasertib]
Method in brief: as §1

[3] = compound: CCn1c(C(=O)N(C2CC2)C2CC2)cc2c3c(ncn3C)c(Nc3cc(C)n(C)n3)nc21
Method in brief: as §1

[4] = compound: CCn1cc(-c2ccnc3[nH]c(-c4cccc(CN(C)C)c4)cc23)c(-c2ccc(NC(=O)N(C)C)cc2)n1
Method in brief: as §1

[5] = compound: CN1CCC(CNc2ccc3ncc(-c4cccc(OC(F)(F)F)c4)n3n2)CC1
Method in brief: as §1

saracatinib = compound: CN1CCN(CCOc2cc(OC3CCOCC3)c3c(Nc4c(Cl)ccc5c4OCO5)ncnc3c2)CC1 [saracatinib]
Method in brief: as §1

sotrastaurin = compound: CN1CCN(c2nc(C3=C(c4c[nH]c5ccccc45)C(=O)NC3=O)c3ccccc3n2)CC1 [sotrastaurin]
Method in brief: as §1

Measured: log2 fold change

TST (UniProt Q16762)
inactive: vemurafenib 0.109 | [1] 0.031 | barasertib -0.013 | [2] 0.021 | volasertib 0.005 | [3] -0.097 | [4] 0.029 | [5] -0.016 | saracatinib -0.034 | sotrastaurin 0.004

TTL (UniProt Q8NG68)
inactive: vemurafenib -0.066 | [1] 0.053 | barasertib 0 | [2] -0.231 | volasertib -0.116 | [3] 0.021 | [4] 0.009 | [5] -0.044 | saracatinib -0.068 | sotrastaurin 0.078

TRAPPC12 (UniProt Q8WVT3)
inactive: vemurafenib 0.039 | [1] -0.001 | barasertib -0.007 | [2] 0.047 | volasertib -0.083 | [3] -0.03 | [4] -0.027 | [5] -0.009 | saracatinib 0.028 | sotrastaurin -0.003

TRMT61B (UniProt Q9BVS5)
inactive: vemurafenib 0.039 | [1] 0.02 | barasertib -0.003 | [2] 0.047 | volasertib 0.035 | [3] -0.038 | [4] -0.038 | [5] 0.099 | saracatinib -0.035 | sotrastaurin 0.009

TRPV2 (UniProt Q9Y5S1)
inactive: vemurafenib -0.04 | [1] 0.026 | barasertib 0.03 | [2] -0.044 | volasertib 0.028 | [3] 0.013 | [4] -0.083 | [5] 0.086 | saracatinib 0.051 | sotrastaurin -0.002

TRAPPC11 (UniProt Q7Z392)
inactive: vemurafenib -0.008 | [1] 0.024 | barasertib 0.061 | [2] -0.001 | volasertib -0.063 | [3] -0.003 | [4] -0.086 | [5] 0.016 | saracatinib 0.009 | sotrastaurin -0.014

TRPC4AP (UniProt Q8TEL6)
inactive: vemurafenib -0.022 | [1] 0.073 | barasertib 0.065 | [2] 0.03 | volasertib -0.049 | [3] -0.015 | [4] -0.046 | [5] -0.031 | saracatinib 0.032 | sotrastaurin 0.017

TRMT61A (UniProt Q96FX7)
inactive: vemurafenib -0.004 | [1] 0.003 | barasertib 0.025 | [2] 0.068 | volasertib -0.068 | [3] -0.077 | [4] 0.006 | [5] 0.034 | saracatinib -0.028 | sotrastaurin -0.045

Reprinted from above (2 entries):
TRPV2 (UniProt Q9Y5S1)
inactive: vemurafenib -0.04 | [1] 0.026 | barasertib 0.03 | [2] -0.044 | volasertib 0.028 | [3] 0.013 | [4] -0.083 | [5] 0.086 | saracatinib 0.051 | sotrastaurin -0.002

TRAPPC11 (UniProt Q7Z392)
inactive: vemurafenib -0.008 | [1] 0.024 | barasertib 0.061 | [2] -0.001 | volasertib -0.063 | [3] -0.003 | [4] -0.086 | [5] 0.016 | saracatinib 0.009 | sotrastaurin -0.014

The list goes on.

TRIOBP (UniProt Q9H2D6)
inactive: vemurafenib 0.049 | [1] 0.043 | barasertib 0.024 | [2] -0.014 | volasertib -0.059 | [3] 0.003 | [4] -0.027 | [5] -0.031 | saracatinib 0.063 | sotrastaurin 0.045

TRMT10C (UniProt Q7L0Y3)
inactive: vemurafenib 0.009 | [1] 0.015 | barasertib -0.042 | [2] -0.056 | volasertib -0.03 | [3] 0.006 | [4] 0.052 | [5] -0.02 | saracatinib -0.018 | sotrastaurin 0.026

TRAPPC4 (UniProt Q9Y296)
inactive: vemurafenib -0.047 | [1] -0.013 | barasertib 0.021 | [2] 0.019 | volasertib -0.038 | [3] 0.043 | [4] 0.045 | [5] -0.159 | saracatinib -0.016 | sotrastaurin 0.042

TRMT112 (UniProt Q9UI30)
inactive: vemurafenib 0.02 | [1] -0.012 | barasertib 0.161 | [2] -0.006 | volasertib 0.024 | [3] 0.025 | [4] 0.035 | [5] -0.048 | saracatinib 0.014 | sotrastaurin -0.117

TTC1 (UniProt Q99614)
inactive: vemurafenib 0.033 | [1] 0.011 | barasertib -0.004 | [2] 0.058 | volasertib 0.02 | [3] -0.034 | [4] -0.024 | [5] 0.047 | saracatinib 0.008 | sotrastaurin -0.019

TRAPPC2L (UniProt Q9UL33)
inactive: vemurafenib -0.092 | [1] -0.008 | barasertib 0.141 | [2] 0.022 | volasertib 0.006 | [3] -0.053 | [4] -0.067 | [5] -0.005 | saracatinib -0.034 | sotrastaurin 0.02

TTC19 (UniProt Q6DKK2)
inactive: vemurafenib 0.013 | [1] 0.008 | barasertib 0.047 | [2] 0.052 | volasertib 0.021 | [3] -0.008 | [4] -0.161 | [5] 0.028 | saracatinib 0.034 | sotrastaurin 0.016

TRIM23 (UniProt P36406)
inactive: vemurafenib 0.077 | [1] -0.038 | barasertib 0.119 | [2] 0.115 | volasertib -0.03 | [3] 0.316 | [4] -0.28 | [5] 0.073 | saracatinib 0.096 | sotrastaurin 0.01

TRNAU1AP (UniProt Q9NX07)
active: vemurafenib -0.335
inactive: [1] 0.007 | barasertib 0.059 | [2] 0.062 | volasertib -0.041 | [3] 0.04 | [4] -0.264 | [5] 0.031 | saracatinib 0.027 | sotrastaurin -0.027

TSC22D2 (UniProt O75157)
inactive: vemurafenib 0.001 | [1] 0.011 | barasertib -0.005 | [2] -0.029 | volasertib -0.006 | [3] -0.066 | [4] -0.064 | [5] 0.021 | saracatinib 0.151 | sotrastaurin 0.017

TRIM33 isoform 2 (UniProt Q9UPN9)
inactive: vemurafenib -0.018 | [1] -0.003 | barasertib 0.009 | [2] -0.008 | volasertib -0.039 | [3] 0.023 | [4] -0.132 | [5] 0.05 | saracatinib 0.027 | sotrastaurin 0.043

TRIP12 isoform 2 (UniProt Q14669)
inactive: vemurafenib 0.014 | [1] 0.068 | barasertib 0.038 | [2] -0.001 | volasertib -0.028 | [3] 0.091 | [4] -0.031 | [5] 0.036 | saracatinib -0.007 | sotrastaurin 0.013

TSR2 (UniProt Q969E8)
inactive: vemurafenib 0.017 | [1] 0.004 | barasertib -0.07 | [2] 0.041 | volasertib 0.008 | [3] -0.067 | [4] -0.045 | [5] 0.016 | saracatinib 0.012 | sotrastaurin 0.001

TRIM33 (UniProt H0Y612)
inactive: vemurafenib 0.012 | [1] 0.007 | barasertib 0.087 | [2] 0.018 | volasertib 0.012 | [3] 0.093 | [4] -0.017 | [5] 0.051 | saracatinib -0.078 | sotrastaurin 0.006

TROAP (UniProt Q12815)
inactive: vemurafenib 0.113 | [1] 0.146 | barasertib 0.053 | [2] 0.063 | volasertib 0.31 | [3] 0.043 | [4] -0.03 | [5] 0.042 | saracatinib 0.014 | sotrastaurin 0.002

TTF2 (UniProt Q9UNY4)
inactive: vemurafenib 0.008 | [1] 0.037 | barasertib 0.027 | [2] -0.028 | volasertib 0.022 | [3] 0.003 | [4] -0.003 | [5] -0.026 | saracatinib 0.025 | sotrastaurin 0.024

TRMT11 (UniProt Q7Z4G4)
inactive: vemurafenib -0.031 | [1] 0.016 | barasertib -0.033 | [2] 0.029 | volasertib -0.002 | [3] 0.014 | [4] 0.134 | [5] 0.028 | saracatinib -0.004 | sotrastaurin 0.02

TRMT1 (UniProt Q9NXH9)
inactive: vemurafenib -0.026 | [1] 0 | barasertib 0.012 | [2] 0.014 | volasertib 0.008 | [3] 0.007 | [4] 0.004 | [5] 0.046 | saracatinib 0.013 | sotrastaurin -0.006

TRRAP (UniProt Q9Y4A5)
inactive: vemurafenib -0.005 | [1] 0.022 | barasertib 0.032 | [2] 0.046 | volasertib -0.032 | [3] -0.018 | [4] -0.035 | [5] 0.016 | saracatinib 0.025 | sotrastaurin 0.003

TTC33 (UniProt Q6PID6)
inactive: vemurafenib 0.007 | [1] -0.025 | barasertib 0.042 | [2] 0.005 | volasertib -0.023 | [3] -0.001 | [4] 0.107 | [5] -0.047 | saracatinib 0.03 | sotrastaurin -0.019
